Laboratory results taken from PubChem BioAssay (EPA / NIEHS).
Where “and” joins values, the source holds several entries; their conditions need not be identical. Equal values may be shown once. This list was built around the results that the source calls inconclusive (neither active nor inactive); the mix of calls is not that of the screen. A potency beside an inconclusive call is a rough fit, not a confirmed value. Calls of active or inactive are those of the source. Rule for the calls: active = hit-call score of the fitted dose curve at least 0.9, where 1 is the maximum; inconclusive = response in the unintended direction; inactive = score below 0.9.

By UniProt entry, the sequences of proteins in these tests, tags left out. Where a name states a change or a piece, a line headed by the entry shows the natural chain unless it says otherwise.
UniProt P10275: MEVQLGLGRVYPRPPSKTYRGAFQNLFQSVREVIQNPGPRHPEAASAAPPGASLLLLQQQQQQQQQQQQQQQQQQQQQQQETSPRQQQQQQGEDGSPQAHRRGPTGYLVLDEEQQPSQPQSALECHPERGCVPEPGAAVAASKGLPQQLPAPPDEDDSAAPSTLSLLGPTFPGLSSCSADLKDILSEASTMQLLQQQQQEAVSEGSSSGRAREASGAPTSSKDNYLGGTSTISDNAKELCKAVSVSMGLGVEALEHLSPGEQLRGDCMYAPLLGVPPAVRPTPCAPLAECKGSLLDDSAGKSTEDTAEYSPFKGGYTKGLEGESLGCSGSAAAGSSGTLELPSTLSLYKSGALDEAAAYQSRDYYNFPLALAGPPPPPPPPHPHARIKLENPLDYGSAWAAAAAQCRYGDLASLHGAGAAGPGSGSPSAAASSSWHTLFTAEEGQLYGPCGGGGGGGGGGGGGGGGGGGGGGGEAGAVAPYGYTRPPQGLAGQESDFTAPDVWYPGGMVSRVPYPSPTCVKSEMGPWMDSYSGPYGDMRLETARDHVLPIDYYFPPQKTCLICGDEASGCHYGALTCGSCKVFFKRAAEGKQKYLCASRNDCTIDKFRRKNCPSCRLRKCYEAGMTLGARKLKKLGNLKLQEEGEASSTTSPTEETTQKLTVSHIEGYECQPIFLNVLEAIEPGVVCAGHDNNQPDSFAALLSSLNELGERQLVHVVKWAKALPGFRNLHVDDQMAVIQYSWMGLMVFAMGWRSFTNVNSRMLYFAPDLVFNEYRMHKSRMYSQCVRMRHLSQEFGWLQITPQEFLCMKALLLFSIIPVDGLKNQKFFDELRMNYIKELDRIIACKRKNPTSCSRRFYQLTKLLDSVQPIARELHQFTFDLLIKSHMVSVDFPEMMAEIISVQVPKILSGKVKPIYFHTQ

These compounds were tested against human Androgen Receptor (AR), AR (gene 367) (UniProt P10275) (assay: ATG_hAR_XSP2: Attagene TRANS-FACTORIAL Multi-Species (XSP2) HepG2 Assay for human Androgen Receptor (AR) (AID 2283820)).
Protocol: ATG_XSP2_multi-species_TRANS is a cell-based, multiplexed assay created by modifying the existing Attagene TRANS-FACTORIAL system to include a panel of nuclear receptors from some or all the following species: human (Homo sapiens), mouse (Mus musculus), frog (Xenopus laevis), zebrafish (Danio rerio), chicken (Gallus gallus), and turtle (Chrysemys picta). The ECOTOX-FACTORIAL format uses HepG2, a human liver cell line, with measurements taken at 24 hours after chemical dosing in a 24-well plate. Xsp2 included 3 nM 6-alpha-fluorotestosterone and 1.5 nM norgestrel to stimulate the androgen receptor.ATG_hAR_XSP2 is one of 29 assay components measured or calculated from the ATG_XSP2_multi-species_TRANS assay. It is designed to make measurements of mRNA induction, a form of inducible reporter, as detected with fluorescence intensity signals by Reverse transcription polymerase chain reaction (RT-PCR) and Capillary electrophoresis technology.The assay endpoint ATG_hAR_XSP2 was analyzed in the positive analysis fitting direction relative to DMSO as the negative control and baseline of activity. Using a type of inducible reporter, measures of mRNA for gain-of-signal activity can be used to understand the reporter gene at the transcription factor-level as they relate to the gene AR. Furthermore, this assay endpoint can be referred to as a primary readout, because this assay has produced multiple assay endpoints where this one serves a reporter gene function. To generalize the intended target to other relatable targets, this assay endpoint is annotated to the nuclear receptor intended target family, where the subfamily is steroidal.
Human liver HepG2 cells are transiently transfected with multiple reporter transcription units (MRTUs) in 6-well plates using FuGene 6 reagent (Roche; 3 ml FuGene/1 mg DNA). The MRTU constructs are regulated by a cis-regulating element (promoter). […] A major difference between the CIS and TRANS system is that in CIS activities of endogenous TFs are measured, whereas the TRANS assay evaluates changes in activities of exogenous, chimeric NR-Gal4 proteins. […] At the end of 24 hour incubation, total RNA was isolated using TriZol reagent (Invitrogen). The isolated RNA is then reverse-transcribed using oligo(dT) primer and Mo-MLV reverse transcriptase (Invitrogen) with DNAse I (Ambion) treatment for 30 min. The one-tenth of the produced cDNA was amplified by PCR using Taq DNA polymerase (Invitrogen) and two reporter sequence-specific primers. The PCR products were fluorescently labeled by primer extension with 6-arboxyfluorescein (6-FAM) 5'-labeled reporter sequence-specific primer (2 min at 95 C, 20 s at 68 C and 10 min at 72 C) and these products were digested with 5U of HpaI (New England Biolabs) for 2h at 37 C. The fragments were purified using Qiaquick PCR columns (Qiagen), analyzed on an ABI 3130xL genetic analyzer (Applied Biosystems) with peak positions identified by using a set of X-rhodamine (ROX)-labeled MapMarker1000 molecular weight standards (BioVentures). The raw capillary electrophoresis data was processed using Attagraph software (Attagene).

Structure (SMILES)	AC50	outcome
O=c1c(-c2ccc(O)cc2)coc2cc(O)ccc12	inconclusive: 10 µM and inconclusive: 11.9 nM	
Oc1ccc(-c2ccccc2)c(Cl)c1	inconclusive: 2.68 µM and inconclusive: 1.11 µM	
CCC(=C(c1ccc(O)cc1)c1ccc(OCCN(C)C)cc1)c1ccccc1	inconclusive: 14.1 µM and inconclusive: 7.1 µM	
CC1(C)C(C=C(Cl)Cl)C1C(=O)OCc1cccc(Oc2ccccc2)c1 (stereo unspecified)		inactive
Cc1c(C)c2c(c(C)c1O)CCC(C)(COc1ccc(CC3SC(=O)NC3=O)cc1)O2 (stereo unspecified)	inconclusive: 2.62 µM	
CCN(CC)CCOc1ccc(C(=C(Cl)c2ccccc2)c2ccccc2)cc1		inactive
Oc1cc2ccccc2c2ccccc12	inconclusive: 6.3 µM and inconclusive: 6.41 µM	
C[C@]12CC[C@H]3C(=CCc4cc(O)ccc43)[C@@H]1CCC2=O	inconclusive: 0.337 µM	
CSC(=O)c1cccc2nnsc12	inconclusive: 9.14 nM and inconclusive: 4.35 µM	
COc1ccc(C(=O)c2ccccc2)c(O)c1	inconclusive: 16.3 µM and inconclusive: 5.43 µM	
CC(C)(c1ccc(O)cc1)c1ccc(O)cc1	inconclusive: 2.05 µM	
Cc1c2ccccc2c(C)c2c1ccc1ccccc12	inconclusive: 33.4 µM	
O=C(c1ccc(O)cc1O)c1ccc(O)cc1O	inconclusive: 7.65 µM	
CC[C@H](c1ccc(O)cc1)[C@@H](CC)c1ccc(O)cc1	inconclusive: 0.0261 µM	
C=C1C[C@H]2[C@@H]3C=C(C)C4=CC(=O)CC[C@]4(C)[C@H]3CC[C@]2(C)[C@@]1(OC(C)=O)C(C)=O	inconclusive: 81.6 nM and inconclusive: 51.9 nM	
CN(C)C(=O)Nc1ccc(Cl)c(Cl)c1	inconclusive: 62.2 µM and inconclusive: 29.7 µM	

In another format: entries from further up
Structure (SMILES),AC50,outcome
C=C1C[C@H]2[C@@H]3C=C(C)C4=CC(=O)CC[C@]4(C)[C@H]3CC[C@]2(C)[C@@]1(OC(C)=O)C(C)=O,inconclusive: 81.6 nM and inconclusive: 51.9 nM,
CN(C)C(=O)Nc1ccc(Cl)c(Cl)c1,inconclusive: 62.2 µM and inconclusive: 29.7 µM,
